In doi:10.1101/2021.12.13.472381:
Read-outs that look alike come from different tables or passages of the source. Results are given in words; binding and its absence hold for the method and conditions named. Binding seen in cells or lysates may run through a third protein. These calls come from enrichment with a bait or labelling near it, and not all partners need be listed.

Protein sequences, listed by entry. Tags and fused reporters are not part of them. Lines headed by an entry give the natural chain unless they say otherwise; changes in a name come on top. Residues count along the entry.
UniProt P02545, residues 1-646: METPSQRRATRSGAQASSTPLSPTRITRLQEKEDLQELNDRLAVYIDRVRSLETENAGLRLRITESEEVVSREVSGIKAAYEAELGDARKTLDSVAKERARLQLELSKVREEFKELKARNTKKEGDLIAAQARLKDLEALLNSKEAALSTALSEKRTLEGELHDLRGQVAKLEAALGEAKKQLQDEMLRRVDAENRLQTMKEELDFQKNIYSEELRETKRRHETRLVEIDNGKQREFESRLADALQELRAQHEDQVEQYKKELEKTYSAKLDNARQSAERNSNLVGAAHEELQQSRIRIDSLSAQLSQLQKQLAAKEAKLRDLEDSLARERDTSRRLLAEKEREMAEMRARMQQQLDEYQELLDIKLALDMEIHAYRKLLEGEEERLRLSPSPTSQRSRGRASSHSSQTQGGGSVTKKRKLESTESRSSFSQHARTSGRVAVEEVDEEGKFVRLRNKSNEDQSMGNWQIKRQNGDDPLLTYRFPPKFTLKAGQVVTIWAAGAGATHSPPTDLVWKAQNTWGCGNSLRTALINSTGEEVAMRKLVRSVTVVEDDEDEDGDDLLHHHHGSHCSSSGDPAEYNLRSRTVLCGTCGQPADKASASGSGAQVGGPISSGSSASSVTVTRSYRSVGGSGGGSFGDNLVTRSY
UniProt Q8N6T7: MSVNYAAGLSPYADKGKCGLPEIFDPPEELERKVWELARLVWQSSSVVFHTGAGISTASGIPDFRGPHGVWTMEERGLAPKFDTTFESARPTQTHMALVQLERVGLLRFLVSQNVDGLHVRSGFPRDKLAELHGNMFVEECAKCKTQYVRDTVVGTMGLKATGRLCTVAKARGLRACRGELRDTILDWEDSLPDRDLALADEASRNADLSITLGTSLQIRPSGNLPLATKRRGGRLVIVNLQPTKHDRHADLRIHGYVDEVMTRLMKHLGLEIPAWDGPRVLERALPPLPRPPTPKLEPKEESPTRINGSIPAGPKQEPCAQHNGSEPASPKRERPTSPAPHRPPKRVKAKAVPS
UniProt Q9NYF8: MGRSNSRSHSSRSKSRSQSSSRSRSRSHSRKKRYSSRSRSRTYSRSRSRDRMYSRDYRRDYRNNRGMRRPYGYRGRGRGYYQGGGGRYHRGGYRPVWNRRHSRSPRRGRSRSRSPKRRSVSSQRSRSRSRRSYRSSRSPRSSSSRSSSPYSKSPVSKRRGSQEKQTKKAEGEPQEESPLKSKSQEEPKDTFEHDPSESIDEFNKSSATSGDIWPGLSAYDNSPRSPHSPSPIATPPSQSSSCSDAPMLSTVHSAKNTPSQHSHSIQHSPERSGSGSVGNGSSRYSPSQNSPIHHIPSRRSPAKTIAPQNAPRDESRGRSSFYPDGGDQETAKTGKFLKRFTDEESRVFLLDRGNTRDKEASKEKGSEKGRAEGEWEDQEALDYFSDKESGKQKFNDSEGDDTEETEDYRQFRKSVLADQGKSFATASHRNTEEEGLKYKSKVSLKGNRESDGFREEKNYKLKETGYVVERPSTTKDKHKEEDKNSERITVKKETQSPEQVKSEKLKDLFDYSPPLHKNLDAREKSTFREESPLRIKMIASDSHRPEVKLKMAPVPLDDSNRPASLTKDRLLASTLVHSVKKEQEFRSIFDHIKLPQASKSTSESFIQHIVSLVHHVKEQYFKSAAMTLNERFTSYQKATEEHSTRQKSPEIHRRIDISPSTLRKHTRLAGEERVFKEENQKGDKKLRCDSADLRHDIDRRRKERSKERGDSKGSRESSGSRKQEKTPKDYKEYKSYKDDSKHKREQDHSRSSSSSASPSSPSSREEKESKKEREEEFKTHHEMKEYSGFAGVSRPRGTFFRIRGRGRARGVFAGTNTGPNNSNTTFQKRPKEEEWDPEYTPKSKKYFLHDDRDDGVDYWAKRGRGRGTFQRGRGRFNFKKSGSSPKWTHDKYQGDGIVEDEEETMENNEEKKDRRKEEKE
UniProt Q15717: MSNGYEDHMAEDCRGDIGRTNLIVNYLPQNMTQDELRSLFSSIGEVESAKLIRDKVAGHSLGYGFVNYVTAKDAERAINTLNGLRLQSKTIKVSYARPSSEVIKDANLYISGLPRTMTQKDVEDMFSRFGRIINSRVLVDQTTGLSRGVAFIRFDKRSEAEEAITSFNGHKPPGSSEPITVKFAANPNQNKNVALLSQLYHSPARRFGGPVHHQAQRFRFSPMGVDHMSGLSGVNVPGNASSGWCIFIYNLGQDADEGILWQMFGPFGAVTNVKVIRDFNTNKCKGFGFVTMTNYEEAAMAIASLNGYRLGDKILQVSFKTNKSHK
UniProt P35637: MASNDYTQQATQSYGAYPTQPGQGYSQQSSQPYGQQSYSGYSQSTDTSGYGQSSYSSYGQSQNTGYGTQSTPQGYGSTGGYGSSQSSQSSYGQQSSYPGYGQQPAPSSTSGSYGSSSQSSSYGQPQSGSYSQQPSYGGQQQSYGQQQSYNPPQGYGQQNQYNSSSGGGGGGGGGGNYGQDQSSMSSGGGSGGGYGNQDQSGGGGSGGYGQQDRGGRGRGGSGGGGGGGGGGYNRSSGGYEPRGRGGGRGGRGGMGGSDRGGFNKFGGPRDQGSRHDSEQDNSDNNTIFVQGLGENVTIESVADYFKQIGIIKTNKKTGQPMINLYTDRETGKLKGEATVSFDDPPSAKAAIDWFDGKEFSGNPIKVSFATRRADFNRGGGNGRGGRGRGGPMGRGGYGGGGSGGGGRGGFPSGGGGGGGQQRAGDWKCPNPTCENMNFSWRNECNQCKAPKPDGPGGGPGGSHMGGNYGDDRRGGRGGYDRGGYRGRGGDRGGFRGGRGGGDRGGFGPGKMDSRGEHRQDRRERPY
UniProt P16401: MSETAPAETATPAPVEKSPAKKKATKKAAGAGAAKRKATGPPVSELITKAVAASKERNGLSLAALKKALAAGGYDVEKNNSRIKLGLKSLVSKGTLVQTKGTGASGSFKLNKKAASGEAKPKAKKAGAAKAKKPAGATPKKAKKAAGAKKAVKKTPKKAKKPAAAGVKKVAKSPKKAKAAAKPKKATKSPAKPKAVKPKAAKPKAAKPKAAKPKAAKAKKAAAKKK
UniProt P08670: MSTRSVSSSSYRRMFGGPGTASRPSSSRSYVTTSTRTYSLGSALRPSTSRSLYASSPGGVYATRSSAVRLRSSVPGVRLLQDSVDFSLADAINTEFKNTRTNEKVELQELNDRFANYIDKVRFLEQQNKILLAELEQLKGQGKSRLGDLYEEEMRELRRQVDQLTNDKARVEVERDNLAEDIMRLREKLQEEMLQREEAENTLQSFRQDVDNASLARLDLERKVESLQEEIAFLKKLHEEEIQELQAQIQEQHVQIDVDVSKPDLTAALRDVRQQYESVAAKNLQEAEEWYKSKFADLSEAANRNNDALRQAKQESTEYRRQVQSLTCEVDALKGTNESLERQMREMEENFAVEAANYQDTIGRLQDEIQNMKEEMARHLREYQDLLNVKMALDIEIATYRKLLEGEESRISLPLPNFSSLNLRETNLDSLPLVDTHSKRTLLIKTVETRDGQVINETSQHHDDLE

Tests used:
Experiment in all cases: affinity purification with mass spectrometry
[1] = molecular target: Lamin A/C (LMNA) (human (endogenous in HCA2 fibroblasts)) (UniProt P02545)
[2] = molecular target: wild type SIRT6 (Sirtuin 6) (human) (UniProt Q8N6T7)
[3] = molecular target: centSIRT6 (SIRT6 N308K/A313S, centenarian allele) (human) (UniProt Q8N6T7)
[4] = molecular target: Lamin A/C (LMNA) (human (endogenous in HCA2 fibroblasts)) (UniProt P02545); remark: listed apart in the source

BCLAF1 (from UniProt Q9NYF8 1-920)
binding [1]: binds

ELAVL1 (from UniProt Q15717 1-326)
binding [1]: binds

FUS (from UniProt P35637 1-526)
binding [1]: binds

H1.5 (from UniProt P16401 1-226)
binding [1]: binds
binding [2]: binds
binding [3]: binds

Lamin A/C (LMNA) (from UniProt P02545 1-646)
binding [2]: binds
binding [3]: binds

vimentin (VIME) (from UniProt P08670 1-466)
binding [2]: binds
binding [3]: binds

B1: SRSF3 (protein, UniProt P84103 1-164)
chain: MHRDSCPLDCKVYVGNLGNNGNKTELERAFGYYGPLRSVWVARNPPGFAFVEFEDPRDAADAVRELDGRTLCGCRVRVELSNGEKRSRNRGPPPSWGRRPRDDYRRRSPPPRRRSPRRRSFSRSRSRSLSRDRRRERSLSRERNHKPSRSFSRSRSRSRSNERK
binding [4]: binds

B2: TFIP11 (protein, UniProt Q9UBB9 1-837)
chain: MSLSHLYRDGEGRIDDDDDERENFEITDWDLQNEFNPNRQRHWQTKEEATYGVWAERDSDDERPSFGGKRARDYSAPVNFISAGLKKGAAEEAELEDSDDEEKPVKQDDFPKDFGPRKLKTGGNFKPSQKGFAGGTKSFMDFGSWERHTKGIGQKLLQKMGYVPGRGLGKNAQGIINPIEAKQRKGKGAVGAYGSERTTQSMQDFPVVDSEEEAEEEFQKELSQWRKDPSGSKKKPKYSYKTVEELKAKGRISKKLTAPQKELSQVKVIDMTGREQKVYYSYSQISHKHNVPDDGLPLQSQQLPQSGKEAKAPGFALPELEHNLQLLIDLTEQEIIQNDRQLQYERDMVVNLFHELEKMTEVLDHEERVISNLSKVLEMVEECERRMQPDCSNPLTLDECARIFETLQDKYYEEYRMSDRVDLAVAIVYPLMKEYFKEWDPLKDCTYGTEIISKWKSLLENDQLLSHGGQDLSADAFHRLIWEVWMPFVRNIVTQWQPRNCDPMVDFLDSWVHIIPVWILDNILDQLIFPKLQKEVENWNPLTDTVPIHSWIHPWLPLMQARLEPLYSPIRSKLSSALQKWHPSDSSAKLILQPWKDVFTPGSWEAFMVKNIVPKLGMCLGELVINPHQQHMDAFYWVIDWEGMISVSSLVGLLEKHFFPKWLQVLCSWLSNSPNYEEITKWYLGWKSMFSDQVLAHPSVKDKFNEALDIMNRAVSSNVGAYMQPGARENIAYLTHTERRKDFQYEAMQERREAENMAQRGIGVAASSVPMNFKDLIETKAEEHNIVFMPVIGKRHEGKQLYTFGRIVIYIDRGVVFVQGEKTWVPTSLQSLIDMAK
binding [4]: binds

B3: THRAP3 (protein, UniProt Q9Y2W1 1-955)
chain: MSKTNKSKSGSRSSRSRSASRSRSRSFSKSRSRSRSLSRSRKRRLSSRSRSRSYSPAHNRERNHPRVYQNRDFRGHNRGYRRPYYFRGRNRGFYPWGQYNRGGYGNYRSNWQNYRQAYSPRRGRSRSRSPKRRSPSPRSRSHSRNSDKSSSDRSRRSSSSRSSSNHSRVESSKRKSAKEKKSSSKDSRPSQAAGDNQGDEAKEQTFSGGTSQDTKASESSKPWPDATYGTGSASRASAVSELSPRERSPALKSPLQSVVVRRRSPRPSPVPKPSPPLSSTSQMGSTLPSGAGYQSGTHQGQFDHGSGSLSPSKKSPVGKSPPSTGSTYGSSQKEESAASGGAAYTKRYLEEQKTENGKDKEQKQTNTDKEKIKEKGSFSDTGLGDGKMKSDSFAPKTDSEKPFRGSQSPKRYKLRDDFEKKMADFHKEEMDDQDKDKAKGRKESEFDDEPKFMSKVIGANKNQEEEKSGKWEGLVYAPPGKEKQRKTEELEEESFPERSKKEDRGKRSEGGHRGFVPEKNFRVTAYKAVQEKSSSPPPRKTSESRDKLGAKGDFPTGKSSFSITREAQVNVRMDSFDEDLARPSGLLAQERKLCRDLVHSNKKEQEFRSIFQHIQSAQSQRSPSELFAQHIVTIVHHVKEHHFGSSGMTLHERFTKYLKRGTEQEAAKNKKSPEIHRRIDISPSTFRKHGLAHDEMKSPREPGYKAEGKYKDDPVDLRLDIERRKKHKERDLKRGKSRESVDSRDSSHSRERSAEKTEKTHKGSKKQKKHRRARDRSRSSSSSSQSSHSYKAEEYTEETEEREESTTGFDKSRLGTKDFVGPSERGGGRARGTFQFRARGRGWGRGNYSGNNNNNSNNDFQKRNREEEWDPEYTPKSKKYYLHDDREGEGSDKWVSRGRGRGAFPRGRGRFMFRKSSTSPKWAHDKFSGEEGEIEDDESGTENREEKDNIQPTTE
binding [4]: binds

B4: U2AFBP (protein, UniProt Q01081 1-240)
chain: MAEYLASIFGTEKDKVNCSFYFKIGACRHGDRCSRLHNKPTFSQTIALLNIYRNPQNSSQSADGLRCAVSDVEMQEHYDEFFEEVFTEMEEKYGEVEEMNVCDNLGDHLVGNVYVKFRREEDAEKAVIDLNNRWFNGQPIHAELSPVTDFREACCRQYEMGECTRGGFCNFMHLKPISRELRRELYGRRRKKHRSRSRSRERRSRSRDRGRGGGGGGGGGGGGRERDRRRSRDRERSGRF
binding [4]: binds
